We go through 2 molecules from publication PMC7042714.

Chains of the proteins cited; added tags and fusions are not shown.
UniProt Q9BVL2: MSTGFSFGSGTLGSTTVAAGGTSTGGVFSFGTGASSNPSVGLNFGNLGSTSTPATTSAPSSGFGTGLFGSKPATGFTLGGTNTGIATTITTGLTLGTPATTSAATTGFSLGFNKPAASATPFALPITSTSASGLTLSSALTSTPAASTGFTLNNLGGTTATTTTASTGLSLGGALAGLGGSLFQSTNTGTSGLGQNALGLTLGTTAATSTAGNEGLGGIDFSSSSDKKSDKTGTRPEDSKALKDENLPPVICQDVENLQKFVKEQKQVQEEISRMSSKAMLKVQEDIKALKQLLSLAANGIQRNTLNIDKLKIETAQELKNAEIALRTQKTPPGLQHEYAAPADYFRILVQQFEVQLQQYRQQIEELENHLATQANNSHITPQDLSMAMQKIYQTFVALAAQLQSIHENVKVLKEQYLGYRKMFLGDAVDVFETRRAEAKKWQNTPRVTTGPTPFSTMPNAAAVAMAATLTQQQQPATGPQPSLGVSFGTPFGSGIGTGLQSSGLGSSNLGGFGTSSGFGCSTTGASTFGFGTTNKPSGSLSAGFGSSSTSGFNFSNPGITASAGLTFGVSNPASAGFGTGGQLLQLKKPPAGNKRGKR

Test [1] has as its target T1, NUP93 (human (endogenous in HeLa)) (UniProt Q8N1F7).
T1 sequence: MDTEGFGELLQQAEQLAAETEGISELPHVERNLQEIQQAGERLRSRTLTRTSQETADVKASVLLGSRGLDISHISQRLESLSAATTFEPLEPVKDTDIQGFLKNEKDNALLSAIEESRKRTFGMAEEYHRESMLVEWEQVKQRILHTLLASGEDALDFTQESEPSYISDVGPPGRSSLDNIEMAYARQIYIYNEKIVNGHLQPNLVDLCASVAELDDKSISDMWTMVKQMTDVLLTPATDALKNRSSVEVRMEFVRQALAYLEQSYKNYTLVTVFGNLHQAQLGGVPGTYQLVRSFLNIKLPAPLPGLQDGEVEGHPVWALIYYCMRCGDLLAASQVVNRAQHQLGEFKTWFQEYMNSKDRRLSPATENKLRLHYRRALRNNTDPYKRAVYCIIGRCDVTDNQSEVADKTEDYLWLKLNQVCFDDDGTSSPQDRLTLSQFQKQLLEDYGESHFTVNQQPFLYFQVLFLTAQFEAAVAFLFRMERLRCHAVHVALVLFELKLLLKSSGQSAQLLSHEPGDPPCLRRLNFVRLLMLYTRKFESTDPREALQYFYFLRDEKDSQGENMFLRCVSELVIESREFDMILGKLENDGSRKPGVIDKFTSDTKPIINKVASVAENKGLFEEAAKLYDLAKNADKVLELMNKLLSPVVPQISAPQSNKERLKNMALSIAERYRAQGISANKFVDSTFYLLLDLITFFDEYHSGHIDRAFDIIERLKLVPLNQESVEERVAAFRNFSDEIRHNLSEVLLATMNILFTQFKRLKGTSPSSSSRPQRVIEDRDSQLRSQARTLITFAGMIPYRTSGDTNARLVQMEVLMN
Put plainly: SEC; SEC-SWATH-MS: native extract (0.5% NP-40, freeze-thaw) of HeLa CCL2 cells synchronized in interphase (double thymidine block) or mitosis (thymidine, nocodazole, shake-off); SRT-C-SEC 500 column, 50 mM HEPES pH 7.5, 150 mM NaCl, 0-4°C; 65 fractions profiled by SWATH-MS, triplicates; association inferred from co-elution.

Test [2] concerns the target HA-Strep-tagged NUP58 (UniProt Q9BVL2). Put plainly: pull-down; HA-Strep-NUP58 captured on StrepTactin Sepharose from lysate of HeLa Flp-In T-REx cells synchronized in interphase or mitosis; 25 mM Tris-HCl pH 7.6, 125 mM NaCl, 2 mM MgCl2, 1 mM DTT, 0.5% NP-40, 4°C; biotin elution; immunoblotting; HA-Strep-GFP as control bait.

Results are given in words; binding and its absence hold for the method and conditions named. For some assays here: In cells and extracts the contact can be indirect. Some binding calls cover weakened binding; strength is not graded here.

B1: NUP155 (protein, UniProt O75694 1-1391)
chain: MPSSLLGAAMPASTSAAALQEALENAGRLIDRQLQEDRMYPDLSELLMVSAPNNPTVSGMSDMDYPLQGPGLLSVPNLPEISSIRRVPLPPELVEQFGHMQCNCMMGVFPPISRAWLTIDSDIFMWNYEDGGDLAYFDGLSETILAVGLVKPKAGIFQPHVRHLLVLATPVDIVILGLSYANLQTGSGVLNDSLSGGMQLLPDPLYSLPTDNTYLLTITSTDNGRIFLAGKDGCLYEVAYQAEAGWFSQRCRKINHSKSSLSFLVPSLLQFTFSEDDPILQIAIDNSRNILYTRSEKGVIQVYDLGQDGQGMSRVASVSQNAIVSAAGNIARTIDRSVFKPIVQIAVIENSESLDCQLLAVTHAGVRLYFSTCPFRQPLARPNTLTLVHVRLPPGFSASSTVEKPSKVHRALYSKGILLMAASENEDNDILWCVNHDTFPFQKPMMETQMTAGVDGHSWALSAIDELKVDKIITPLNKDHIPITDSPVVVQQHMLPPKKFVLLSAQGSLMFHKLRPVDQLRHLLVSNVGGDGEEIERFFKLHQEDQACATCLILACSTAACDREVSAWATRAFFRYGGEAQMRFPTTLPPPSNVGPILGSPVYSSSPVPSGSPYPNPSFLGTPSHGIQPPAMSTPVCALGNPATQATNMSCVTGPEIVYSGKHNGICIYFSRIMGNIWDASLVVERIFKSGNREITAIESSVPCQLLESVLQELKGLQEFLDRNSQFAGGPLGNPNTTAKVQQRLIGFMRPENGNPQQMQQELQRKFHEAQLSEKISLQAIQQLVRKSYQALALWKLLCEHQFTIIVAELQKELQEQLKITTFKDLVIRDKELTGALIASLINCYIRDNAAVDGISLHLQDICPLLYSTDDAICSKANELLQRSRQVQNKTEKERMLRESLKEYQKISNQVDLSNVCAQYRQVRFYEGVVELSLTAAEKKDPQGLGLHFYKHGEPEEDIVGLQAFQERLNSYKCITDTLQELVNQSKAAPQSPSVPKKPGPPVLSSDPNMLSNEEAGHHFEQMLKLSQRSKDELFSIALYNWLIQVDLADKLLQVASPFLEPHLVRMAKVDQNRVRYMDLLWRYYEKNRSFSNAARVLSRLADMHSTEISLQQRLEYIARAILSAKSSTAISSIAADGEFLHELEEKMEVARIQLQIQETLQRQYSHHSSVQDAVSQLDSELMDITKLYGEFADPFKLAECKLAIIHCAGYSDPILVQTLWQDIIEKELSDSVTLSSSDRMHALSLKIVLLGKIYAGTPRFFPLDFIVQFLEQQVCTLNWDVGFVIQTMNEIGVPLPRLLEVYDQLFKSRDPFWNRMKKPLHLLDCIHVLLIRYVENPSQVLNCERRRFTNLCLDAVCGYLVELQSMSSSVAVQAITGNFKSLQAKLERLH
B1: the binding entry in test [1] is recorded as “binds”.

B2: NUP93 (protein, UniProt Q8N1F7 1-819)
chain: MDTEGFGELLQQAEQLAAETEGISELPHVERNLQEIQQAGERLRSRTLTRTSQETADVKASVLLGSRGLDISHISQRLESLSAATTFEPLEPVKDTDIQGFLKNEKDNALLSAIEESRKRTFGMAEEYHRESMLVEWEQVKQRILHTLLASGEDALDFTQESEPSYISDVGPPGRSSLDNIEMAYARQIYIYNEKIVNGHLQPNLVDLCASVAELDDKSISDMWTMVKQMTDVLLTPATDALKNRSSVEVRMEFVRQALAYLEQSYKNYTLVTVFGNLHQAQLGGVPGTYQLVRSFLNIKLPAPLPGLQDGEVEGHPVWALIYYCMRCGDLLAASQVVNRAQHQLGEFKTWFQEYMNSKDRRLSPATENKLRLHYRRALRNNTDPYKRAVYCIIGRCDVTDNQSEVADKTEDYLWLKLNQVCFDDDGTSSPQDRLTLSQFQKQLLEDYGESHFTVNQQPFLYFQVLFLTAQFEAAVAFLFRMERLRCHAVHVALVLFELKLLLKSSGQSAQLLSHEPGDPPCLRRLNFVRLLMLYTRKFESTDPREALQYFYFLRDEKDSQGENMFLRCVSELVIESREFDMILGKLENDGSRKPGVIDKFTSDTKPIINKVASVAENKGLFEEAAKLYDLAKNADKVLELMNKLLSPVVPQISAPQSNKERLKNMALSIAERYRAQGISANKFVDSTFYLLLDLITFFDEYHSGHIDRAFDIIERLKLVPLNQESVEERVAAFRNFSDEIRHNLSEVLLATMNILFTQFKRLKGTSPSSSSRPQRVIEDRDSQLRSQARTLITFAGMIPYRTSGDTNARLVQMEVLMN
With B2, in test [2], the binding result is “binds”.
